Source: PubChem BioAssay AID1224830 (NIAID, 2016)

- Purpose: 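Genes whose knock-down alters the TNF-alpha reporter response to LPS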 (primary screen)
- Cells: human THP-1 monocytic leukaemia cells, TNF dual-luciferase reporter clone, PMA-differentiated to macrophage-like cells
- Reagents: siRNA pool against human genes, 50 nM
- Duration: LPS for 4 h, given about 3 days after siRNA transfection
- Challenge: bacterial LPS (TLR4 ligand), 10 ng/ml
- Detection: 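Ratio of firefly to renilla light, scaled to the plate median and expressed as a robust z-score per replicate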
- Scale: TNF reporter robust z-score: higher = stronger TNF reporter response to LPS
- Active means: 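Each well counts as active if its z-score is over 2.8 or under -1.5; controls are left without a call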
This is one part, drawn at random, of about 18,000 deposited reagents. Over the whole deposit, about 2,900 (16%) are marked active. 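Calls are made per well; low scores hint the gene aids the LPS response, high scores that it dampens it.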 Repeated entries: four replicate wells of each siRNA pool.

{"gene knocked down":"CYP2C18","TNF reporter robust z-score":0.09,"outcome":"inactive"}
{"gene knocked down":"CYP2C18","TNF reporter robust z-score":0.15,"outcome":"inactive"}
{"gene knocked down":"CYP2C18","TNF reporter robust z-score":0.06,"outcome":"inactive"}
{"gene knocked down":"CYP2C18","TNF reporter robust z-score":0.51,"outcome":"inactive"}
{"gene knocked down":"FOXE3","TNF reporter robust z-score":-0.58,"outcome":"inactive"}
{"gene knocked down":"FOXE3","TNF reporter robust z-score":0.59,"outcome":"inactive"}
{"gene knocked down":"FOXE3","TNF reporter robust z-score":0.05,"outcome":"inactive"}
{"gene knocked down":"FOXE3","TNF reporter robust z-score":0.91,"outcome":"inactive"}
{"gene knocked down":"USP37","TNF reporter robust z-score":-1.5,"outcome":"inactive"}
{"gene knocked down":"USP37","TNF reporter robust z-score":0.29,"outcome":"inactive"}
{"gene knocked down":"USP37","TNF reporter robust z-score":-0.99,"outcome":"inactive"}
{"gene knocked down":"USP37","TNF reporter robust z-score":-0.71,"outcome":"inactive"}
{"gene knocked down":"TAF13","TNF reporter robust z-score":-0.55,"outcome":"inactive"}
{"gene knocked down":"TAF13","TNF reporter robust z-score":-0.5,"outcome":"inactive"}
{"gene knocked down":"TAF13","TNF reporter robust z-score":-0.37,"outcome":"inactive"}
{"gene knocked down":"TAF13","TNF reporter robust z-score":-0.64,"outcome":"inactive"}
{"gene knocked down":"IFIT2","TNF reporter robust z-score":-0.43,"outcome":"inactive"}
{"gene knocked down":"IFIT2","TNF reporter robust z-score":-0.18,"outcome":"inactive"}
{"gene knocked down":"IFIT2","TNF reporter robust z-score":-0.62,"outcome":"inactive"}
{"gene knocked down":"IFIT2","TNF reporter robust z-score":-0.31,"outcome":"inactive"}
{"gene knocked down":"TSEN34","TNF reporter robust z-score":-0.25,"outcome":"inactive"}
{"gene knocked down":"TSEN34","TNF reporter robust z-score":1.49,"outcome":"inactive"}
{"gene knocked down":"TSEN34","TNF reporter robust z-score":0.99,"outcome":"inactive"}
{"gene knocked down":"TSEN34","TNF reporter robust z-score":1.79,"outcome":"inactive"}
{"gene knocked down":"POTEA","TNF reporter robust z-score":-0.25,"outcome":"inactive"}
{"gene knocked down":"POTEA","TNF reporter robust z-score":1.21,"outcome":"inactive"}
{"gene knocked down":"POTEA","TNF reporter robust z-score":1.64,"outcome":"inactive"}
{"gene knocked down":"POTEA","TNF reporter robust z-score":2.37,"outcome":"inactive"}
{"gene knocked down":"BTBD8","TNF reporter robust z-score":-0.67,"outcome":"inactive"}
{"gene knocked down":"BTBD8","TNF reporter robust z-score":0.21,"outcome":"inactive"}
{"gene knocked down":"BTBD8","TNF reporter robust z-score":-0.21,"outcome":"inactive"}
{"gene knocked down":"BTBD8","TNF reporter robust z-score":0.17,"outcome":"inactive"}
{"gene knocked down":"HOXC9","TNF reporter robust z-score":2.08,"outcome":"inactive"}
{"gene knocked down":"HOXC9","TNF reporter robust z-score":0.57,"outcome":"inactive"}
{"gene knocked down":"HOXC9","TNF reporter robust z-score":2.06,"outcome":"inactive"}
{"gene knocked down":"HOXC9","TNF reporter robust z-score":2.21,"outcome":"inactive"}
{"gene knocked down":"ACSS1","TNF reporter robust z-score":-0.32,"outcome":"inactive"}
{"gene knocked down":"ACSS1","TNF reporter robust z-score":1.09,"outcome":"inactive"}
{"gene knocked down":"ACSS1","TNF reporter robust z-score":-0.22,"outcome":"inactive"}
{"gene knocked down":"ACSS1","TNF reporter robust z-score":0.39,"outcome":"inactive"}
{"gene knocked down":"CACNA1F","TNF reporter robust z-score":-1.66,"outcome":"active"}
{"gene knocked down":"CACNA1F","TNF reporter robust z-score":1.72,"outcome":"inactive"}
{"gene knocked down":"CACNA1F","TNF reporter robust z-score":0.34,"outcome":"inactive"}
{"gene knocked down":"CACNA1F","TNF reporter robust z-score":-0.25,"outcome":"inactive"}
{"gene knocked down":"BCKDHA","TNF reporter robust z-score":-0.13,"outcome":"inactive"}
{"gene knocked down":"BCKDHA","TNF reporter robust z-score":0.1,"outcome":"inactive"}
{"gene knocked down":"BCKDHA","TNF reporter robust z-score":-0.03,"outcome":"inactive"}
{"gene knocked down":"BCKDHA","TNF reporter robust z-score":0.28,"outcome":"inactive"}
{"gene knocked down":"CXCL6","TNF reporter robust z-score":1.39,"outcome":"inactive"}
{"gene knocked down":"CXCL6","TNF reporter robust z-score":1.92,"outcome":"inactive"}
{"gene knocked down":"CXCL6","TNF reporter robust z-score":1.34,"outcome":"inactive"}
{"gene knocked down":"CXCL6","TNF reporter robust z-score":2.45,"outcome":"inactive"}
{"gene knocked down":"PROM1","TNF reporter robust z-score":0.65,"outcome":"inactive"}
{"gene knocked down":"PROM1","TNF reporter robust z-score":3.24,"outcome":"active"}
{"gene knocked down":"PROM1","TNF reporter robust z-score":1.9,"outcome":"inactive"}
{"gene knocked down":"PROM1","TNF reporter robust z-score":1.31,"outcome":"inactive"}
{"gene knocked down":"FRK","TNF reporter robust z-score":1.26,"outcome":"inactive"}
{"gene knocked down":"FRK","TNF reporter robust z-score":0.65,"outcome":"inactive"}
{"gene knocked down":"FRK","TNF reporter robust z-score":0.87,"outcome":"inactive"}
{"gene knocked down":"FRK","TNF reporter robust z-score":1.89,"outcome":"inactive"}

No new results follow: an excerpt of the list.
{"gene knocked down":"USP37","TNF reporter robust z-score":-0.99,"outcome":"inactive"}
{"gene knocked down":"USP37","TNF reporter robust z-score":-0.71,"outcome":"inactive"}
{"gene knocked down":"TAF13","TNF reporter robust z-score":-0.55,"outcome":"inactive"}
{"gene knocked down":"TAF13","TNF reporter robust z-score":-0.5,"outcome":"inactive"}
{"gene knocked down":"TAF13","TNF reporter robust z-score":-0.37,"outcome":"inactive"}
{"gene knocked down":"TAF13","TNF reporter robust z-score":-0.64,"outcome":"inactive"}
{"gene knocked down":"IFIT2","TNF reporter robust z-score":-0.43,"outcome":"inactive"}
{"gene knocked down":"IFIT2","TNF reporter robust z-score":-0.18,"outcome":"inactive"}
